# Assay results reported in PubChem BioAssay AID2685 (National Center for Advancing Translational Sciences (NCATS), 2010).
# The list shows a part of the results. The main result of the screen is listed elsewhere. These columns were measured beside it and carry no call. Compounds called inactive in the main read-out are mostly missing here. The note in brackets gives the kind of curve behind each potency; many fits are weak.
# Assay: qHTS Assay for Lipid Storage Modulators in Drosophila S3 Cells;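 on cell number change: cells counted by Cell Tracker Red CMTPX staining in the red channel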
# Details: BODIPY lipid droplet fluorescence, 18-24 h; for cell number change: measured here: cell count max response, cells fed with added oleic acid
# Summary of the method: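 Drosophila S3 cells loaded with oleic acid (400 uM, as added) and compounds at several concentrations; lipid droplets imaged by 488-nm laser-scanning cytometry, 500–530 nm intensity and object ratio to cell channel. Percent activity normalized to 20 uM Triacsin C.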
# [1] = measured here: cell number channel AC50, cells fed with added oleic acid
# [2] = measured here: lipid fluorescence (Fed channel) AC50, cells fed with added oleic acid
smiles,measurement,setting,value
CCc1ccc(NC(=O)CCCN2C(=S)NC(C)(C)CC2C)cc1 (stereo not drawn),cell number change,,126%
same,AC50,[1],"29.1 µM [rising, single point]"
CCCCCCc1ccc(N2C[C@H](C)[C@@H](CC(=O)NCc3ccccc3)C2=O)cc1,cell number change,,-7.77%
same,AC50,[2],"18.4 µM [falling, single point]"
O=C(CCCn1c(SCC(=O)c2ccc(F)cc2)nc2ccccc2c1=O)NCc1ccco1,cell number change,,1.91%
same,AC50,[2],"0.411 µM [rising, full curve]"
COc1ccccc1CNC(=O)C1CCN(c2nc3ccccc3o2)CC1,cell number change,,-5.57%
same,AC50,[2],"2.31 µM [rising, full curve]"
COC(=O)Cn1c(O)c(N=NC(=O)CNC(=O)c2ccc3c(c2)OCCO3)c2ccccc21,cell number change,,-22.6%
same,AC50,[2],"5.17 µM [falling, partial curve, poor fit]"
CC(C)C(c1nnnn1C(C)(C)C)N1CCOCC1 (stereo not drawn),cell number change,,-17.1%
same,AC50,[2],"5.8 µM [falling, full curve, poor fit]"
Cc1ccccc1NC(=O)N1CCC(NC(=O)C2CCCCC2)CC1,cell number change,,23.9%
CCOc1cc(S(=O)(=O)N(CC)CC)c(OCC)cc1-n1cnnn1,cell number change,,-11.2%
same,AC50,[2],"18.4 µM [falling, single point]"
O=C1CCC(=O)N1CNc1ccc(Oc2ccccc2)cc1,AC50,[1],"1.3 µM [falling, full curve, poor fit]"
Cc1nnc(SCC(=O)Nc2nsc(-c3ccc(C(C)(C)C)cc3)n2)s1,cell number change,,62.7%
same,AC50,[1],"10.3 µM [rising, partial curve]"
same,AC50,[2],"2.59 µM [rising, full curve, poor fit]"
COc1ccccc1/C=N\Nc1cc(C)nc(-n2nc(C)cc2C)n1,cell number change,,46.4%
same,AC50,[1],"29.1 µM [rising, single point]"
same,AC50,[2],"14.6 µM [falling, partial curve, poor fit]"
Cc1ccc(C)c(Cc2c(C)nc3c(C(=O)NCc4ccc5c(c4)OCO5)cnn3c2C)c1,AC50,[1],"0.13 µM [rising, full curve, poor fit]"
same,AC50,[2],"0.231 µM [rising, full curve]"
CC(Sc1nncn1-c1ccccc1)C(=O)Nc1cccc([N+](=O)[O-])c1 (stereo not drawn),cell number change,,127%
same,AC50,[1],"0.411 µM [rising, single point]"
CSc1ccc(S(=O)(=O)N2c3ccccc3CC2C)cc1 (stereo not drawn),cell number change,,-33.4%
same,AC50,[1],"29.1 µM [falling, single point]"
COc1ccc2c(c1)c1ncnc(N3CCN(Cc4ccc5c(c4)OCO5)CC3)c1n2C,AC50,[2],"0.116 µM [rising, full curve]"
c1ccc(-n2nnnc2Oc2ccc(-n3ccnc3)cc2)cc1,AC50,[1],"0.103 µM [rising, full curve, poor fit]"
NC(=O)c1nsc(C(=O)N(CC(=O)NC2CCCC2)c2ccc(F)c(Cl)c2)c1N,AC50,[2],"0.259 µM [falling, full curve]"
CCC1CN(C(=O)N2CCC(C(=O)NCc3ccccc3C)CC2)c2ccccc2O1 (stereo not drawn),AC50,[2],"2.91 µM [falling, full curve]"
COc1ccc(/C=C/C(=O)N2CCN(S(=O)(=O)/C=C/c3ccccc3)CC2)cc1OC,cell number change,,82.3%
same,AC50,[1],"29.1 µM [rising, single point]"
same,AC50,[2],"29.1 µM [rising, single point]"
COc1nsnc1N1CCOCC1,cell number change,,20.6%
same,AC50,[1],"0.103 µM [rising, full curve, poor fit]"
same,AC50,[2],"0.146 µM [rising, full curve, poor fit]"
O=C(c1ccccc1)N(C(=O)c1ccccc1)c1ncnc2c1C(c1ccccc1)c1c(ccc3ccccc13)O2 (stereo not drawn),cell number change,,-20.6%
same,AC50,[2],"0.731 µM [falling, full curve]"
CC(C)OCCCNc1ncnc2c1[nH]c1ccccc12,cell number change,,43.2%
same,AC50,[1],"1.16 µM [rising, partial curve, poor fit]"
same,AC50,[2],"0.651 µM [rising, partial curve, poor fit]"
CC(C)Cn1c(-c2ccc(C#N)cc2)nc2c1c(=O)[nH]c(=O)n2CC(C)C,AC50,[1],"2.91 µM [rising, partial curve]"
Nc1nc(Nc2ccccc2)nc(NC2CCCCC2)c1[N+](=O)[O-],cell number change,,-55.6%
same,AC50,[1],"18.4 µM [falling, single point]"
same,AC50,[2],"29.1 µM [falling, single point]"
CCOc1ccc(N(CC(=O)Nc2ccc(C)cc2)S(C)(=O)=O)cc1,cell number change,,-6.82%
same,AC50,[2],"6.51 µM [rising, single point]"
Cc1ccc(CNc2cccnc2)cc1,cell number change,,22.6%
same,AC50,[2],"8.2 µM [rising, partial curve]"
COc1cccc(NC(=O)NCC2CCN(Cc3ccc(F)cc3)CC2)c1,cell number change,,31.2%
CCOC(=O)CSc1nc2cc3c(cc2cc1C#N)OCO3,cell number change,,-13%
same,AC50,[2],"1.84 µM [rising, partial curve]"
COc1cccc(CN2CC(C(=O)N(C)CCc3ccccc3)CCC2=O)c1 (stereo not drawn),AC50,[2],"3.66 µM [rising, partial curve]"
O=C(CSCSCC(=O)NCC1CCCO1)NCC1CCCO1 (stereo not drawn),cell number change,,1.01%
same,AC50,[1],"5.17 µM [rising, single point]"
CN(C)c1nc(N)nc(-c2cccnc2)n1,cell number change,,-23.7%
COc1cccc(C(=O)NN2CC(O)=C(c3nc4ccccc4s3)C2=N)c1,cell number change,,-36.1%
CCOC(=O)c1c(C)[nH]c(C(=O)Nc2ccc(NC(C)=O)cc2)c1C,cell number change,,55.2%
same,AC50,[2],"4.61 µM [rising, partial curve]"
CC(=O)NCCn1c(SCc2ccc(C)cc2)nc2ccccc2c1=O,cell number change,,-3.98%
Cc1ccccc1CNC1CCCCC1,AC50,[2],"25.9 µM [falling, partial curve, poor fit]"
CCN(CC)CCCN(C(=O)c1ccccc1C)c1nc(-c2ccc(OC)cc2)cs1,cell number change,,4.01%
same,AC50,[2],"29.1 µM [rising, single point]"
COc1ccccc1NS(=O)(=O)c1ccc(C(=O)N2CCN(c3ccccc3)CC2)cc1,cell number change,,-22%
O=C(CSc1ccc2nnc(-c3ccccn3)n2n1)Nc1ccccc1,cell number change,,0.275%
Oc1c(C(Nc2cccc(C(F)(F)F)c2)c2ccncc2)ccc2cccnc12 (stereo not drawn),cell number change,,22%
Cn1c(=O)c2c(ncn2CC(=O)Nc2ccccc2Sc2ccccc2)n(C)c1=O,cell number change,,-1.68%
same,AC50,[2],"2.91 µM [rising, partial curve]"
COc1ccc(OC)c(NC(=O)C(CCS(C)(=O)=O)NC(C)=O)c1 (stereo not drawn),cell number change,,-9.2%
same,AC50,[2],"25.9 µM [falling, partial curve]"
CC(C)NC(=O)COc1cccc2ccccc12,cell number change,,14.5%
same,AC50,[1],"0.103 µM [rising, full curve, poor fit]"
same,AC50,[2],"0.517 µM [rising, single point]"
CCOC(=O)C1=C(COC(=O)/C=C/c2ccc(OC)cc2OC)NC(=O)NC1C (stereo not drawn),AC50,[1],"4.11 µM [falling, single point]"
same,AC50,[2],"4.61 µM [falling, full curve, poor fit]"
CCc1ccc2c(CN3CCN(Cc4ccccc4)CC3)cc(=O)oc2c1,cell number change,,27.7%
same,AC50,[2],"6.51 µM [rising, single point]"
COc1cc(OC)cc(-c2nnc(SCC(=O)N3CCCC3)o2)c1,cell number change,,12%
same,AC50,[2],"2.59 µM [rising, partial curve, poor fit]"
COc1ccc2cc(C(C)C(=O)NC3CCC(O)CC3)ccc2c1 (stereo not drawn),cell number change,,19.4%
same,AC50,[1],"3.66 µM [rising, single point]"
Cn1nnc(NC(=O)c2cccc([N+](=O)[O-])c2)n1,cell number change,,-4.38%
CC(CNS(=O)(=O)c1cc(Cl)ccc1Cl)CN(C)C (stereo not drawn),cell number change,,-22.9%
same,AC50,[2],"20.6 µM [falling, partial curve]"
Cc1ccc(S(=O)(=O)N2CCOCC2)cc1NC(=O)C1CC(=O)N(c2ccc3c(c2)OCCO3)C1 (stereo not drawn),AC50,[1],"0.116 µM [falling, full curve, poor fit]"
Cn1cc(/C(Cc2ccccc2)=N\O)c2ccccc21,cell number change,,42.2%
same,AC50,[1],"1.84 µM [rising, full curve, poor fit]"
same,AC50,[2],"0.731 µM [rising, single point]"
O=C(CN1CCN(c2ccccc2)CC1)N1N=CCC1c1ccccc1 (stereo not drawn),cell number change,,17.2%
same,AC50,[2],"20.6 µM [rising, single point]"
Cc1cccc(C)c1NC(=O)Nc1cccs1,cell number change,,9.51%
same,AC50,[2],"0.00517 µM [rising, full curve, poor fit]"
CN(C)c1ccc(C(CNC(=O)c2ccco2)N2CCCC2)cc1 (stereo not drawn),cell number change,,16.7%
same,AC50,[2],"29.1 µM [rising, single point]"
CCC1CCCCN1CCCNC(=O)C1CCN(Cc2nc(-c3ccc(Cl)cc3)oc2C)CC1 (stereo not drawn),cell number change,,-0.236%
same,AC50,[2],"29.1 µM [rising, partial curve]"
Cc1c(C(=O)N/N=C/c2ccc(Cl)cc2)[nH]c2ccc(Cl)cc12,cell number change,,-48.6%
same,AC50,[1],"25.9 µM [falling, partial curve, poor fit]"
same,AC50,[2],"25.9 µM [falling, partial curve]"
O=c1c(O)c(-c2ccc(O)cc2O)oc2cc(O)cc(O)c12,cell number change,,-32.4%
same,AC50,[1],"23.1 µM [falling, single point]"
same,AC50,[2],"0.58 µM [rising, single point]"
CCC(C)NC(=O)c1cc2c(=O)n3ccccc3nc2s1 (stereo not drawn),cell number change,,8.33%
same,AC50,[2],"29.1 µM [rising, single point]"
CCCCN(C)C(=O)c1nc2ccccn2c1CN1CCN(c2cnccn2)CC1,cell number change,,16.4%
Nc1ccc(-c2nnc(-c3ccc(-c4ccccc4)cc3)o2)cc1,cell number change,,-36.8%
same,AC50,[1],"29.1 µM [falling, single point]"
same,AC50,[2],"0.116 µM [rising, single point]"
CCn1c(SCC(=O)Nc2nnc(C)s2)nnc1C(C)NC(=O)c1ccccc1F (stereo not drawn),AC50,[2],"29.1 µM [rising, single point]"
COc1ccc2[nH]c(C)c(CCN(Cc3cccs3)C(=S)Nc3ccccc3OC)c2c1,cell number change,,36.9%
same,AC50,[1],"0.184 µM [rising, full curve, poor fit]"

# Reformatted with bars between the fields: part of the list above.
smiles | measurement | setting | value
CCc1ccc(NC(=O)CCCN2C(=S)NC(C)(C)CC2C)cc1 (stereo not drawn) | cell number change |  | 126%
same | AC50 | [1] | 29.1 µM [rising, single point]
CCCCCCc1ccc(N2C[C@H](C)[C@@H](CC(=O)NCc3ccccc3)C2=O)cc1 | cell number change |  | -7.77%
COc1ccccc1CNC(=O)C1CCN(c2nc3ccccc3o2)CC1 | cell number change |  | -5.57%
CC(C)C(c1nnnn1C(C)(C)C)N1CCOCC1 (stereo not drawn) | AC50 | [2] | 5.8 µM [falling, full curve, poor fit]
Cc1ccccc1NC(=O)N1CCC(NC(=O)C2CCCCC2)CC1 | cell number change |  | 23.9%
Cc1nnc(SCC(=O)Nc2nsc(-c3ccc(C(C)(C)C)cc3)n2)s1 | AC50 | [1] | 10.3 µM [rising, partial curve]
COc1ccccc1/C=N\Nc1cc(C)nc(-n2nc(C)cc2C)n1 | AC50 | [2] | 14.6 µM [falling, partial curve, poor fit]
COc1ccc(/C=C/C(=O)N2CCN(S(=O)(=O)/C=C/c3ccccc3)CC2)cc1OC | AC50 | [1] | 29.1 µM [rising, single point]
same | AC50 | [2] | 29.1 µM [rising, single point]
CC(C)Cn1c(-c2ccc(C#N)cc2)nc2c1c(=O)[nH]c(=O)n2CC(C)C | AC50 | [1] | 2.91 µM [rising, partial curve]
Nc1nc(Nc2ccccc2)nc(NC2CCCCC2)c1[N+](=O)[O-] | AC50 | [1] | 18.4 µM [falling, single point]
Cc1ccc(CNc2cccnc2)cc1 | cell number change |  | 22.6%
CCN(CC)CCCN(C(=O)c1ccccc1C)c1nc(-c2ccc(OC)cc2)cs1 | cell number change |  | 4.01%
same | AC50 | [2] | 29.1 µM [rising, single point]
Oc1c(C(Nc2cccc(C(F)(F)F)c2)c2ccncc2)ccc2cccnc12 (stereo not drawn) | cell number change |  | 22%
Cn1c(=O)c2c(ncn2CC(=O)Nc2ccccc2Sc2ccccc2)n(C)c1=O | AC50 | [2] | 2.91 µM [rising, partial curve]
CC(C)NC(=O)COc1cccc2ccccc12 | AC50 | [2] | 0.517 µM [rising, single point]
CCc1ccc2c(CN3CCN(Cc4ccccc4)CC3)cc(=O)oc2c1 | cell number change |  | 27.7%
COc1cc(OC)cc(-c2nnc(SCC(=O)N3CCCC3)o2)c1 | AC50 | [2] | 2.59 µM [rising, partial curve, poor fit]
COc1ccc2cc(C(C)C(=O)NC3CCC(O)CC3)ccc2c1 (stereo not drawn) | cell number change |  | 19.4%
CC(CNS(=O)(=O)c1cc(Cl)ccc1Cl)CN(C)C (stereo not drawn) | cell number change |  | -22.9%
Cn1cc(/C(Cc2ccccc2)=N\O)c2ccccc21 | cell number change |  | 42.2%
CN(C)c1ccc(C(CNC(=O)c2ccco2)N2CCCC2)cc1 (stereo not drawn) | cell number change |  | 16.7%
CCC1CCCCN1CCCNC(=O)C1CCN(Cc2nc(-c3ccc(Cl)cc3)oc2C)CC1 (stereo not drawn) | AC50 | [2] | 29.1 µM [rising, partial curve]
